# Where a name gives a salt, the structure may show the parent alone. Some of the results follow. Hit calls seldom repeat between salt and free forms of one compound.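 Kinases were expressed as nanoluciferase fusions in K562 cells and luminescence was read every 4 h between 2 and 18 h as percent of control, DMSO set to 100% and a positive control to 0%. A time point counts as decreased when the signal drops significantly (2 sigma). The hit call is the authors' own, does not follow from the count of time points alone, and its rule is not shown.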
# By UniProt entry, the sequences of proteins in these tests, tags left out.
# UniProt Q16288, whole entry, looked up: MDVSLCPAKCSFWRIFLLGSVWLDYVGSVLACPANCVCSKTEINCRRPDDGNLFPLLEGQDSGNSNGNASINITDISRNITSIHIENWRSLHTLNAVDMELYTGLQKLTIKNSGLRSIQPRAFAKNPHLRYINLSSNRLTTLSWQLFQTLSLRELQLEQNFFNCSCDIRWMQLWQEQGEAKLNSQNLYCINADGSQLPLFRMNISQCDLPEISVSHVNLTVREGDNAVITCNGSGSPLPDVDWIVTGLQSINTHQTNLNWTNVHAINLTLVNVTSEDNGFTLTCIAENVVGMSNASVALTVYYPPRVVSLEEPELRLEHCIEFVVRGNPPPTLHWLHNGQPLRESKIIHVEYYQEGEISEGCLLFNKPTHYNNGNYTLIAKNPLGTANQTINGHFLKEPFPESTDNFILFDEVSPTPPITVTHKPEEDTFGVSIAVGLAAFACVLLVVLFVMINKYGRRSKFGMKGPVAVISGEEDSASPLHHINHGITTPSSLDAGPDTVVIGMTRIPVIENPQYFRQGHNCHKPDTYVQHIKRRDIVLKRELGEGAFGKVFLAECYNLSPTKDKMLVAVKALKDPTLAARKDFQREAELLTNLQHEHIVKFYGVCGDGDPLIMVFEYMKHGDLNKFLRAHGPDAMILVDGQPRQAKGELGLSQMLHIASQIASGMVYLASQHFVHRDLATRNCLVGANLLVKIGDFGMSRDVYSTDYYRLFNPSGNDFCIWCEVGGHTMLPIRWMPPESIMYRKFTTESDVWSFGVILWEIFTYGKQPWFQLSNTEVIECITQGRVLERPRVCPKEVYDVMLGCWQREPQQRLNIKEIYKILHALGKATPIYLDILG
# Biological target: NTRK3 (UniProt Q16288)
# Test: number of time points (of 5) at which kinase-Nluc abundance scored as decreased, DMSO-normalised (count); higher = more persistent destabilization
# Conditions: K562; 2-18 h
row,SMILES,number of time points
1,CN1C(=O)[C@@H](NC(=O)c2n[nH]c(Cc3ccccc3)n2)COc2ccccc21 (10 µM),0
2,O=C1NC(=Nc2c(Cl)cccc2Cl)S/C1=C\c1ccc2nccnc2c1 (2.5 µM),5
3,Cc1cccc(-c2[nH]c(C(C)(C)C)nc2-c2ccc3nccnc3c2)n1 (10 µM),0
4,O=C(Nc1cccc(C(F)(F)F)c1)c1cccc2cc(Oc3cc(CO)ncn3)ccc12 (10 µM),0
5,CNc1cc(Nc2cccn(-c3ccccn3)c2=O)nn2c(C(=O)N[C@@H]3C[C@@H]3F)cnc12 (2.5 µM),0
6,Cc1ccn2c(C(=O)C(=O)c3ccccc3)c(-c3ccccc3)nc2c1 (10 µM),0
7,COc1cc(N2CCOCC2)ccc1Nc1ncc(Cl)c(Nc2ccccc2NS(C)(=O)=O)n1 (2.5 µM),0
8,O=C(NC1CCOCC1)c1ccc(-c2cc(-c3c[nH]nc3-c3ccccn3)ccn2)cc1 (10 µM),0
9,O=C1NC(=O)/C(=C/c2ccc3nccc(-c4ccncc4)c3c2)S1 (10 µM),0
10,Cc1ncc(NC(=O)NC2c3ccccc3-c3ccccc32)c(-c2ccccc2)n1 (10 µM),0
11,CC(C)C[C@@H](C(=O)Nc1ccn(C[C@@H](O)CO)n1)N1CC(Oc2ccccc2Cl)=CC1=O [Dorzagliatin] (10 µM),0
12,O=C1O[C@H]([C@@H](O)CO)C(O)=C1OP(=O)(O)O [2-Phospho-L-ascorbic acid (trisodium)] (10 µM),0
13,C[C@@H]1CC(=O)c2c(ccc3c2C(=O)c2cccc(O)c2C3=O)C1 [Ochromycinone] (10 µM),0
14,Cc1c(-c2ccc(C(N)=O)c3[nH]c4cc(C(C)(C)O)ccc4c23)cccc1-n1cnc2ccccc2c1=O (2.5 µM),0
15,CC(C)(C)n1nc(Cc2ccccc2O)c2c(N)ncnc21 (10 µM),0
16,C=CC(=O)N1C(=O)CC(c2ccc(F)cc2)Sc2ccccc21 (stereo not drawn) [GSK-3β inhibitor 3] (10 µM),0
17,CCc1ccc(OCC(=O)Nc2ccc(F)c([N+](=O)[O-])c2)cc1 (10 µM),0
18,CN(C)c1nc2c(Br)c(Br)c(Br)c(Br)c2[nH]1 (10 µM),0

# Grouped by structure, those above with a tert-butyl group
row,SMILES,number of time points
3,Cc1cccc(-c2[nH]c(C(C)(C)C)nc2-c2ccc3nccnc3c2)n1 (10 µM),0
15,CC(C)(C)n1nc(Cc2ccccc2O)c2c(N)ncnc21 (10 µM),0

# Additional compounds

row,SMILES,number of time points
1,Nc1ncnc2c1c(-c1ccc(Oc3ccccc3)cc1)nn2C1CCN(CCOCCOCCOc2ccc3c(c2)CN(C2CCC(=O)NC2=O)C3=O)CC1 (stereo not given) (2.5 µM),0
2,Cc1cnc(NC2CCOCC2)nc1-n1cnc(C(=O)N[C@H](CN)c2cc(F)cc(Cl)c2)c1 (10 µM),0
3,FC(F)(F)c1ccc(/C=C/c2nc(COc3ccc(CCCCn4ccnn4)cc3)co2)cc1 [Mubritinib] (10 µM),0
4,Cc1cc2sc(NC(=O)Cc3ccccc3)nc2cc1Cl (10 µM),0
5,O=C(CNc1cccc(Cl)c1)NC1CCCN(c2ncnc3[nH]ccc23)C1 (stereo not given) (10 µM),0
6,Oc1ccc(/C=C/c2cc(O)cc(F)c2)cc1 [Resveratrol analog 1] (10 µM),0
7,CC/C(=N\NC(=O)c1ccnc(NCCCN2CCOCC2)c1)c1ccc(Cl)cc1O (2.5 µM),0
8,O[C@@H]1CO[C@H]2[C@@H]1OC[C@H]2Oc1nc2nc(-c3ccc(-c4ccccc4)cc3)c(Cl)cc2[nH]1 (10 µM),1
9,Nc1c(C(=O)NCc2ccc(C(=O)NCCCC3CCCCC3)cc2)cnn1-c1ccccc1 (2.5 µM),0
10,Cc1ccc(C(=O)Nc2sc(Nc3ccccc3)nc2C(N)=O)cc1 (10 µM),0
11,COc1cc(N(C)CCN(C)C)c(N)cc1Nc1nccc(-c2cn(C)c3ccccc23)n1 [Mutated EGFR-IN-1] (10 µM),0
12,CCN(CC)c1cc2oc(=O)c(-c3nc4ccccc4o3)cc2cc1C (2.5 µM),0
13,Cn1cc(-c2cnc3cnn(S(=O)(=O)c4cnc5ccc(-c6cnn(C)c6)cn45)c3c2)cn1 [Glumetinib] (10 µM),0
14,Cc1ccc(NC(=O)c2ccnc(C(F)(F)F)c2)cc1-c1cc(OCCO)nc(N2CCOCC2)c1 (10 µM),0
15,C=CC(=O)Nc1cccc(-c2cccc3cnc(Nc4ccc(N5CCN(CCO)CC5)c(F)c4F)nc23)c1 [Olafertinib] (2.5 µM),0
16,CC(C)(C[C@H](N)C(=O)O)C(F)F [NV-5138 (hydrochloride)] (10 µM),0
17,Cc1cc(C)nc(NS(=O)(=O)c2ccc(NC(=S)NC(=O)COc3ccc(Br)cc3Cl)cc2)n1 (2.5 µM),0
